Among the data in article PMC12373721 are binding values, retold here.

Sequences of proteins named here, by UniProt entry; tags and fusion partners are left off. A change or cut given only in a name is not applied to a line headed by its entry. A line that says so, or that is headed by a name, gives the form on record, which may keep a tag or linker.
UniProt Q96L91: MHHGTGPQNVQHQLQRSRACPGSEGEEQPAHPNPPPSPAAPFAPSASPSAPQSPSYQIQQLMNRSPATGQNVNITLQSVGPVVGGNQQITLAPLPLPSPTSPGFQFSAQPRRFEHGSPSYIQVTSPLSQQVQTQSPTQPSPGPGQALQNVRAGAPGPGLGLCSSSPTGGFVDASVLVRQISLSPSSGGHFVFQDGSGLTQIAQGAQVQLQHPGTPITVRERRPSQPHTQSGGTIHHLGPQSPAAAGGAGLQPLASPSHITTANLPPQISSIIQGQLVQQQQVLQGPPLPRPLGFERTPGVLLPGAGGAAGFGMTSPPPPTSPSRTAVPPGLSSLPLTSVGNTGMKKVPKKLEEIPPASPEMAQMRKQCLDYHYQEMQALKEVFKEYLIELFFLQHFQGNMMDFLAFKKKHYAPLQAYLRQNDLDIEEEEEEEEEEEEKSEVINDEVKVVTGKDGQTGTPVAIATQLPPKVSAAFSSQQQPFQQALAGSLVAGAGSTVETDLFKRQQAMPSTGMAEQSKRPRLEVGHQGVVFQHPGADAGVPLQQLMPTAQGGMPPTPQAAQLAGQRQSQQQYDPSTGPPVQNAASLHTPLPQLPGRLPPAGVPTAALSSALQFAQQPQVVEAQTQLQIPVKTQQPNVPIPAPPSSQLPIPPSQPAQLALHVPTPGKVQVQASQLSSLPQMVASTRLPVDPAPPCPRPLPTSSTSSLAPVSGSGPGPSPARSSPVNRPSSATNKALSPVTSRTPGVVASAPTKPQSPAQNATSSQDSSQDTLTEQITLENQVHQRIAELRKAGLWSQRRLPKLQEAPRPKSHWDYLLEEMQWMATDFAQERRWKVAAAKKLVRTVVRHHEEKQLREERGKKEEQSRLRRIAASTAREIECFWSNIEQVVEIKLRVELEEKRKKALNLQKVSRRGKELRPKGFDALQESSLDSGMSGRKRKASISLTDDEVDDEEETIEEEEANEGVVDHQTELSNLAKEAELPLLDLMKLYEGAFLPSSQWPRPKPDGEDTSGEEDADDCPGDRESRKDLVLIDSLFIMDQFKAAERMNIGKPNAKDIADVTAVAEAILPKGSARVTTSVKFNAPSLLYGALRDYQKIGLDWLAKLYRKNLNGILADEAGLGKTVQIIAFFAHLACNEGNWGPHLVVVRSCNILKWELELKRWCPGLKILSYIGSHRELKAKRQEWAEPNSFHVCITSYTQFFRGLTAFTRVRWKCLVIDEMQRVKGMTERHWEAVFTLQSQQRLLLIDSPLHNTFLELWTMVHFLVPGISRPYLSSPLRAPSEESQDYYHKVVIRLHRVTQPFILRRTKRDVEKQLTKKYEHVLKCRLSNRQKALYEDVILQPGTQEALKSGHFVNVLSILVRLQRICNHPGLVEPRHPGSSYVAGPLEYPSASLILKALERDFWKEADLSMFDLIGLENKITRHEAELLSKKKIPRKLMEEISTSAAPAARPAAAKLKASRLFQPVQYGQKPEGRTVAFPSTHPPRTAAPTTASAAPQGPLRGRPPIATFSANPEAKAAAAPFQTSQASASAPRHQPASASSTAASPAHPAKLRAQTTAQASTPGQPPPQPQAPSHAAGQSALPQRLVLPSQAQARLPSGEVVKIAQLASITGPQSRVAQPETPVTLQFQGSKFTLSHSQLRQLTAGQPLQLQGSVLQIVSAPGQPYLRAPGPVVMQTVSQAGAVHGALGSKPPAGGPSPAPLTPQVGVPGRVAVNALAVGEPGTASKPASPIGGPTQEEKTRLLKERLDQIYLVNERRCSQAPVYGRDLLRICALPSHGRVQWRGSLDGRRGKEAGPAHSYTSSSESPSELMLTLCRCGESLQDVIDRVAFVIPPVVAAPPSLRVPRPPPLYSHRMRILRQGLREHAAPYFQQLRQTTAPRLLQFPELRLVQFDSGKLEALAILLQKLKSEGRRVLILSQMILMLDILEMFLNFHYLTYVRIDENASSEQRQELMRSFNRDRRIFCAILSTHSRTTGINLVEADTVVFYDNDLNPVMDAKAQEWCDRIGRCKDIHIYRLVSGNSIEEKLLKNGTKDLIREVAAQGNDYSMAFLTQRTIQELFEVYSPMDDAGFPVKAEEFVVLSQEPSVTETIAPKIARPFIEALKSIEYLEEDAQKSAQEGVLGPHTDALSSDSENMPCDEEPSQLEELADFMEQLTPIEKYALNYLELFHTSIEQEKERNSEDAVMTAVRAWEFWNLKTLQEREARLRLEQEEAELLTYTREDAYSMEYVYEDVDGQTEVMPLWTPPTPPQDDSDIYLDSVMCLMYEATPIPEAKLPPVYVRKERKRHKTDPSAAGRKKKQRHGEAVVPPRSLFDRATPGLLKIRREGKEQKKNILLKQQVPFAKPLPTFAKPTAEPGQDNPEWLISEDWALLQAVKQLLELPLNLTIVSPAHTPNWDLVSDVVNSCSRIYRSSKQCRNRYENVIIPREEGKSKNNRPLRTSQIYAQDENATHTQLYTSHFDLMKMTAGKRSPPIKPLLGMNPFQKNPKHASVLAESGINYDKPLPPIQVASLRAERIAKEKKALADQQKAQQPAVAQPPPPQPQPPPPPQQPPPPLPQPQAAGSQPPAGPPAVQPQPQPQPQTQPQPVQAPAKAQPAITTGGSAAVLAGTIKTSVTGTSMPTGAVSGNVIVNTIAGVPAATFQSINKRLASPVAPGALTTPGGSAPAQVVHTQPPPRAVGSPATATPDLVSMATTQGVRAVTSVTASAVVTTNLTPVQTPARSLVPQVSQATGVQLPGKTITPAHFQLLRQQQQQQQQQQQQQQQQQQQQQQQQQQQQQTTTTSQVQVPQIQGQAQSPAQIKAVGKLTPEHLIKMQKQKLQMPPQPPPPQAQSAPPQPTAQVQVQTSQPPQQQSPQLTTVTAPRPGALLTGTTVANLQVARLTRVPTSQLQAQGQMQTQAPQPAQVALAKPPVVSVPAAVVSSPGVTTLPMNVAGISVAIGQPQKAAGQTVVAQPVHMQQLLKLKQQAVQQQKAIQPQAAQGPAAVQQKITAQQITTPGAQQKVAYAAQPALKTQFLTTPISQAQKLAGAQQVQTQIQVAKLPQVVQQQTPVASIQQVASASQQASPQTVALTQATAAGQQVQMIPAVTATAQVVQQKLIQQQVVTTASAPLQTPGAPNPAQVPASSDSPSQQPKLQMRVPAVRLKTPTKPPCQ
Tip60β (spliced, exon 5-skipped isoform of Tip60/KAT5) (Q92993-2, form named): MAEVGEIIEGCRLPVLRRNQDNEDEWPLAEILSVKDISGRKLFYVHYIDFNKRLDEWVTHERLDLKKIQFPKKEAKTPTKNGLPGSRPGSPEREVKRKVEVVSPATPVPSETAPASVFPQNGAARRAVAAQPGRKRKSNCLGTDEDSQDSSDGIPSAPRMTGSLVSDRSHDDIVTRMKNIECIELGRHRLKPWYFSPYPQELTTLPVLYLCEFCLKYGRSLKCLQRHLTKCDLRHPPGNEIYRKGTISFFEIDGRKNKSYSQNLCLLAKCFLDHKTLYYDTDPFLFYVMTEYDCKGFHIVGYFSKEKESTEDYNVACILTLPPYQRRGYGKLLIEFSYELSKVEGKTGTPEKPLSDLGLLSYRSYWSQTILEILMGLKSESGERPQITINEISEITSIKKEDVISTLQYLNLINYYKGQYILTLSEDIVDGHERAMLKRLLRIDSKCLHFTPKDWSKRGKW

These are yes or no findings as the source states them, for the method shown. Binding seen in cells or lysates may run through a third protein. Some binding calls cover weakened binding; strength is not graded here.

In this experiment the target is EP400 (human (endogenous in MKL-1)) (UniProt Q96L91). As to the kind of experiment: co-IP; MKL-1 cells with Dox-inducible EP400 shRNA treated with DMSO, 111 nM MS023, 12 nM JNJ-64619178 or Dox for 3 d; whole-cell lysates (EBC buffer, 150 mM NaCl, 0.5% NP-40) immunoprecipitated with MAX or EP400 antibody on Protein G Dynabeads at 4°C overnight, washed with 300 mM NaCl EBC buffer; immunoblot.

Consider “Tip60β (spliced, exon 5-skipped isoform of Tip60/KAT5) (from UniProt Q92993-2 1-461)”, for which the binding entry is on record as “binds”.
